Assay results as given in paper PMC7242464.
These are yes or no findings as the source states them, for the method shown. Binding seen in cells or lysates may run through a third protein. Some binding calls cover weakened binding; strength is not graded here.

Target: T1, SET8 (human (endogenous in HUVECs)) (UniProt Q9NQR1)
T1 sequence: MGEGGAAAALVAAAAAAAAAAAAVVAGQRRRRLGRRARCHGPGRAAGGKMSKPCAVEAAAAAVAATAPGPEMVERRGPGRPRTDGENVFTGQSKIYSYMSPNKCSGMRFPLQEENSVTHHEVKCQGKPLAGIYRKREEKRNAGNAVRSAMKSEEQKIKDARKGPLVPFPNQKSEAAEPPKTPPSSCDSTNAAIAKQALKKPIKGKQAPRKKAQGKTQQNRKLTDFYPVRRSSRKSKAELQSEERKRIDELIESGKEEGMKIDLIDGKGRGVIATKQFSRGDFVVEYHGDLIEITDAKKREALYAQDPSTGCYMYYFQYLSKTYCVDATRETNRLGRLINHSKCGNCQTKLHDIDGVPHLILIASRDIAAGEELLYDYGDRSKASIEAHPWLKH
Test: co-IP; endogenous IP from HUVEC whole-cell lysates; primary antibodies and protein A/G Dynabeads at 4 °C overnight; input and IP fractions by western blotting

binding: binds
B1: E74-like ETS transcription factor 3 (ELF3) (protein, UniProt P78545 1-371)
chain: MAATCEISNIFSNYFSAMYSSEDSTLASVPPAATFGADDLVLTLSNPQMSLEGTEKASWLGEQPQFWSKTQVLDWISYQVEKNKYDASAIDFSRCDMDGATLCNCALEELRLVFGPLGDQLHAQLRDLTSSSSDELSWIIELLEKDGMAFQEALDPGPFDQGSPFAQELLDDGQQASPYHPGSCGAGAPSPGSSDVSTAGTGASRSSHSSDSGGSDVDLDPTDGKLFPSDGFRDCKKGDPKHGKRKRGRPRKLSKEYWDCLEGKKSKHAPRGTHLWEFIRDILIHPELNEGLMKWENRHEGVFKFLRSEAVAQLWGQKKKNSNMTYEKLSRAMRYYYKREILERVDGRRLVYKFGKNSSGWKEEEVLQSRN
